The list is a part of this screen's results and no random one: it gathers tests that were run many times, whatever their T/C, doses with no T/C, and many T/C values between a quarter and a half above the control. Further doses and runs are listed elsewhere. T/C is the treated group as % of the vehicle group. Some doses have a count of surviving animals in place of a T/C: the source files T/C as zero there, which appears to mark a toxic dose or a test without result, not a measured value. Some survivor counts are full or nearly so, which does not show that the dose was tolerated: the source hardly ever lists a survival T/C far under the control, and the zero likely stands for such cases as well. Counts of survivors are from the toxicity check (mostly the fifth day) where no day follows; animals may have died later. Schedules are NCI's codes, read here as Q, the interval in days (D) or hours (H), X, the number of doses. For survival time, this PubChem deposit counts one and a half times the control or more as active, and values a quarter to a half above the control carry no call in these data; other NCI protocols may use other cut-offs. Some T/C values are followed by the survivors on the day toxicity was checked, most often the fifth; without a count, all were alive then. Some entries were tested several times; their values stand side by side, smallest first. Counts like (3×) give the number of equal values in this list. Some schedule codes hold Z or #, which are not explained here.
System: BDF1 mice, intracerebral L1210 leukemia, survival T/C
Assay: NCI In Vivo Anticancer Drug Screen. Data for tumor model L1210 Leukemia (intracerebral) in B6D2F1 (BDF1) mice
Settings: higher T/C = longer survival
In short: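 Survival measured in treated and vehicle-control tumour-bearing mice; value = T/C.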

[1] = T/C endpoint: mean survival time, dose: 91.0 mg/kg/injection, schedule: Q01DX001 (oral), vehicle: other

CC1CCC(NC(=O)N(CCCl)N=O)CC1 (centres undefined)
survivor count (T/C endpoint: mean survival time, dose: 2.0 mg/kg/injection, schedule: Q01DX001 (ip), vehicle: saline): 4 of 10
T/C (T/C endpoint: mean survival time, dose: 2.5 mg/kg/injection, schedule: Q01DX009 (ip), vehicle: saline): 138 % of control
T/C (T/C endpoint: mean survival time, dose: 3.2 mg/kg/injection, schedule: Q01DX001 (ip), vehicle: other): 103 (3×), 104, 105 (2×), 107, 112, 115, 116, 118, 142, 143, 174 % of control
T/C (T/C endpoint: mean survival time, dose: 4.0 mg/kg/injection, schedule: Q01DX009 (ip), vehicle: other): 144 % of control
T/C (T/C endpoint: mean survival time, dose: 5.4 mg/kg/injection, schedule: Q01DX001 (oral), vehicle: other): 133 % of control
T/C (T/C endpoint: mean survival time, dose: 6.0 mg/kg/injection, schedule: Q01DX001 (ip), vehicle: other): 107 (2×), 108, 109, 112 (2×), 115 (2×), 116 [9 of 10 alive], 119, 122, 127, 180 % of control (2×)
T/C (T/C endpoint: mean survival time, dose: 6.25 mg/kg/injection, schedule: Q01DX009 (ip), vehicle: Klucel (hydroxypropylcellulose) (HPC)): 128 % of control
T/C (T/C endpoint: mean survival time, dose: 10.0 mg/kg/injection, schedule: Q01DX001 (ip), vehicle: other): 142 % of control
T/C (T/C endpoint: mean survival time, dose: 13.0 mg/kg/injection, schedule: Q01DX001 (ip), vehicle: other, evaluated on day 45): 119 (2×), 120, 125, 128, 129, 132, 141, 150, 151, 155, 166, 175, 193 % of control
T/C (T/C endpoint: mean survival time, dose: 13.0 mg/kg/injection, schedule: Q01DX001 (ip), vehicle: other, run until all animals had died): 130 and 136 % of control
T/C (T/C endpoint: mean survival time, dose: 16.0 mg/kg/injection, schedule: Q01DX001 (ip), vehicle: Klucel (hydroxypropylcellulose) (HPC)): 128 % of control
T/C (T/C endpoint: mean survival time, dose: 16.0 mg/kg/injection, schedule: Q01DX001 (ip), vehicle: clinical formulation): 138 % of control
T/C (T/C endpoint: mean survival time, dose: 18.0 mg/kg/injection, schedule: Q01DX001 (ip), vehicle: other, evaluated on day 45): 133 and 144 % of control
T/C (T/C endpoint: mean survival time, dose: 18.0 mg/kg/injection, schedule: Q01DX001 (ip), vehicle: other, run until all animals had died): 136 % of control
T/C (T/C endpoint: mean survival time, dose: 20.0 mg/kg/injection, schedule: Q01DX001 (ip), vehicle: other): 143 % of control
T/C (T/C endpoint: mean survival time, dose: 24.0 mg/kg/injection, schedule: Q01DX001 (ip), vehicle: other): 142 % of control
T/C (T/C endpoint: mean survival time, dose: 24.0 mg/kg/injection, schedule: Q01DX001 (oral), vehicle: other, evaluated on day 45): 171 and 249 % of control
T/C (T/C endpoint: mean survival time, dose: 24.0 mg/kg/injection, schedule: Q01DX001 (oral), vehicle: other, evaluated on day 60): 173, 175, 200 % of control
T/C (T/C endpoint: mean survival time, dose: 27.0 mg/kg/injection, schedule: Q01DX001 (ip), vehicle: other, evaluated on day 45): 164, 196, 200, 202, 207, 234, 271, 277, 281, 307, 355, 383, 385, 387 % of control
T/C (T/C endpoint: mean survival time, dose: 27.0 mg/kg/injection, schedule: Q01DX001 (ip), vehicle: other, run until all animals had died): 145 % of control
T/C (T/C endpoint: mean survival time, dose: 32.0 mg/kg/injection, schedule: Q01DX001 (ip), vehicle: Klucel (hydroxypropylcellulose) (HPC)): 133 % of control
T/C (T/C endpoint: mean survival time, dose: 32.0 mg/kg/injection, schedule: Q01DX001 (ip), vehicle: saline): 142 % of control
survivor count (T/C endpoint: mean survival time, dose: 32.0 mg/kg/injection, schedule: Q01DX009 (ip), vehicle: other): 9 of 10
T/C (T/C endpoint: mean survival time, dose: 36.0 mg/kg/injection, schedule: Q01DX001 (ip), vehicle: other, evaluated on day 45): 163 and 185 % of control
T/C (T/C endpoint: mean survival time, dose: 36.0 mg/kg/injection, schedule: Q01DX001 (ip), vehicle: other, evaluated on day 60): 192, 292, 364 % of control
T/C (T/C endpoint: mean survival time, dose: 36.0 mg/kg/injection, schedule: Q01DX001 (ip), vehicle: other, run until all animals had died): 208 % of control
T/C (T/C endpoint: mean survival time, dose: 54.0 mg/kg/injection, schedule: Q01DX001 (ip), vehicle: other, evaluated on day 45): 126, 135, 185 (2×), 196, 205, 211 (2×), 222, 227, 258, 318, 359, 371 % of control
T/C (T/C endpoint: mean survival time, dose: 54.0 mg/kg/injection, schedule: Q01DX001 (ip), vehicle: other, evaluated on day 60): 134, 198, 264 % of control
T/C (T/C endpoint: mean survival time, dose: 54.0 mg/kg/injection, schedule: Q01DX001 (ip), vehicle: other, run until all animals had died): 200 % of control
T/C (T/C endpoint: mean survival time, dose: 64.0 mg/kg/injection, schedule: Q01DX001 (ip), vehicle: Klucel (hydroxypropylcellulose) (HPC)): 138 % of control
T/C (T/C endpoint: mean survival time, dose: 64.0 mg/kg/injection, schedule: Q01DX001 (ip), vehicle: clinical formulation): 139 % of control [9 of 10 alive]
T/C (T/C endpoint: mean survival time, dose: 64.0 mg/kg/injection, schedule: Q01DX001 (ip), vehicle: saline): 128 % of control
T/C (T/C endpoint: mean survival time, dose: 64.0 mg/kg/injection, schedule: Q01DX001 (oral), vehicle: clinical formulation): 138 % of control
survivor count (T/C endpoint: mean survival time, dose: 64.0 mg/kg/injection, schedule: Q01DX009 (ip), vehicle: other): 8 of 10
T/C (T/C endpoint: mean survival time, dose: 72.0 mg/kg/injection, schedule: Q01DX001 (ip), vehicle: other): 144 % of control
survivor count (T/C endpoint: mean survival time, dose: 80.0 mg/kg/injection, schedule: Q01DX001 (ip), vehicle: other): 8 of 10
T/C (T/C endpoint: mean survival time, dose: 90.0 mg/kg/injection, schedule: Q01DX001 (oral), vehicle: other): 139 % of control
T/C [1]: 144 % of control
survivor count [1]: 10 of 10
T/C (T/C endpoint: mean survival time, dose: 128.0 mg/kg/injection, schedule: Q01DX001 (oral), vehicle: clinical formulation): 133 % of control
survivor count (T/C endpoint: mean survival time, dose: 160.0 mg/kg/injection, schedule: Q01DX001 (ip), vehicle: other): 7 of 10
survivor count (T/C endpoint: mean survival time, dose: 256.0 mg/kg/injection, schedule: Q01DX001 (ip), vehicle: clinical formulation): 5 of 10
survivor count (T/C endpoint: mean survival time, dose: 256.0 mg/kg/injection, schedule: Q01DX001 (ip), vehicle: saline): 3 of 10
survivor count (T/C endpoint: mean survival time, dose: 512.0 mg/kg/injection, schedule: Q01DX001 (oral), vehicle: clinical formulation): 3 of 10
survivor count (T/C endpoint: mean survival time, dose: 1024.0 mg/kg/injection, schedule: Q01DX001 (oral), vehicle: clinical formulation): 0 of 10
T/C (T/C endpoint: median survival time, dose: 8.0 mg/kg/injection, schedule: Q01DX001 (ip), vehicle: saline): 129 % of control
T/C (T/C endpoint: median survival time, dose: 16.0 mg/kg/injection, schedule: Q01DX001 (ip), vehicle: clinical formulation): 144 % of control
T/C (T/C endpoint: median survival time, dose: 64.0 mg/kg/injection, schedule: Q01DX001 (ip), vehicle: clinical formulation): 129 % of control
T/C (T/C endpoint: median survival time, dose: 64.0 mg/kg/injection, schedule: Q01DX001 (ip), vehicle: saline): 125 % of control
T/C (T/C endpoint: median survival time, dose: 128.0 mg/kg/injection, schedule: Q01DX001 (oral), vehicle: clinical formulation): 143 % of control

CNNCc1ccc(C(=O)NC(N)=O)cc1
T/C (T/C endpoint: mean survival time, dose: 100.0 mg/kg/injection, schedule: Q01DX Z (ip), vehicle: saline): 125 % of control
T/C (T/C endpoint: mean survival time, dose: 148.0 mg/kg/injection, schedule: Q01DX Z (ip), vehicle: saline): 131 % of control
T/C (T/C endpoint: mean survival time, dose: 222.0 mg/kg/injection, schedule: Q01DX Z (ip), vehicle: saline): 138 % of control
T/C (T/C endpoint: mean survival time, dose: 333.0 mg/kg/injection, schedule: Q01DX Z (ip), vehicle: saline): 140 % of control
T/C (T/C endpoint: mean survival time, dose: 500.0 mg/kg/injection, schedule: Q01DX Z (ip), vehicle: saline): 135 % of control [8 of 9 alive]

O=NN(CCCl)C(=O)N[C@@H]1CCCC[C@H]1O
survivor count (T/C endpoint: mean survival time, dose: 40.0 mg/kg/injection, schedule: Q01DX001 (ip), vehicle: saline with Tween-80): 9 of 10
survivor count (T/C endpoint: mean survival time, dose: 60.0 mg/kg/injection, schedule: Q01DX001 (ip), vehicle: saline with Tween-80): 9 of 10
survivor count (T/C endpoint: mean survival time, dose: 90.0 mg/kg/injection, schedule: Q01DX001 (ip), vehicle: saline with Tween-80): 8 of 10
survivor count (T/C endpoint: mean survival time, dose: 133.0 mg/kg/injection, schedule: Q01DX001 (ip), vehicle: saline with Tween-80): 6 of 10
survivor count (T/C endpoint: mean survival time, dose: 200.0 mg/kg/injection, schedule: Q01DX001 (ip), vehicle: saline with Tween-80): 0 of 10

O=NN(CCCl)C(=O)NC1CCC(NC(=O)N(CCCl)N=O)CC1 (centres undefined)
T/C (T/C endpoint: mean survival time, dose: 23.0 mg/kg/injection, schedule: Q01DX001 (ip), vehicle: other): 136 and 139 % of control
T/C (T/C endpoint: mean survival time, dose: 38.0 mg/kg/injection, schedule: Q01DX001 (oral), vehicle: other): 145 % of control
T/C (T/C endpoint: mean survival time, dose: 63.0 mg/kg/injection, schedule: Q01DX001 (ip), vehicle: carboxymethylcellulose (CMC)): 140 % of control
T/C (T/C endpoint: mean survival time, dose: 84.0 mg/kg/injection, schedule: Q01DX001 (oral), vehicle: other): 131 % of control
T/C (T/C endpoint: mean survival time, dose: 171.0 mg/kg/injection, schedule: Q01DX001 (oral), vehicle: other): 141 % of control
survivor count (T/C endpoint: mean survival time, dose: 383.0 mg/kg/injection, schedule: Q01DX001 (ip), vehicle: other): 10 of 10

CN(N=O)C(=O)Nc1ccccc1
survivor count (T/C endpoint: mean survival time, dose: 600.0 mg/kg/injection, schedule: Q01DX001 (ip), vehicle: carboxymethylcellulose (CMC)): 7 of 10
survivor count (T/C endpoint: mean survival time, dose: 1200.0 mg/kg/injection, schedule: Q01DX001 (ip), vehicle: carboxymethylcellulose (CMC)): 0 of 10
survivor count (T/C endpoint: mean survival time, dose: 2400.0 mg/kg/injection, schedule: Q01DX001 (ip), vehicle: carboxymethylcellulose (CMC)): 0 of 10
